Source: doi:10.1101/808840
Results are given in words; binding and its absence hold for the method and conditions named. In cells and extracts the contact can be indirect. Some binding calls cover weakened binding; strength is not graded here.

Sequences of proteins named here, by UniProt entry; tags and fusion partners are left off. A change or cut given only in a name is not applied to a line headed by its entry. A line that says so, or that is headed by a name, gives the form on record, which may keep a tag or linker.
UniProt Q07864: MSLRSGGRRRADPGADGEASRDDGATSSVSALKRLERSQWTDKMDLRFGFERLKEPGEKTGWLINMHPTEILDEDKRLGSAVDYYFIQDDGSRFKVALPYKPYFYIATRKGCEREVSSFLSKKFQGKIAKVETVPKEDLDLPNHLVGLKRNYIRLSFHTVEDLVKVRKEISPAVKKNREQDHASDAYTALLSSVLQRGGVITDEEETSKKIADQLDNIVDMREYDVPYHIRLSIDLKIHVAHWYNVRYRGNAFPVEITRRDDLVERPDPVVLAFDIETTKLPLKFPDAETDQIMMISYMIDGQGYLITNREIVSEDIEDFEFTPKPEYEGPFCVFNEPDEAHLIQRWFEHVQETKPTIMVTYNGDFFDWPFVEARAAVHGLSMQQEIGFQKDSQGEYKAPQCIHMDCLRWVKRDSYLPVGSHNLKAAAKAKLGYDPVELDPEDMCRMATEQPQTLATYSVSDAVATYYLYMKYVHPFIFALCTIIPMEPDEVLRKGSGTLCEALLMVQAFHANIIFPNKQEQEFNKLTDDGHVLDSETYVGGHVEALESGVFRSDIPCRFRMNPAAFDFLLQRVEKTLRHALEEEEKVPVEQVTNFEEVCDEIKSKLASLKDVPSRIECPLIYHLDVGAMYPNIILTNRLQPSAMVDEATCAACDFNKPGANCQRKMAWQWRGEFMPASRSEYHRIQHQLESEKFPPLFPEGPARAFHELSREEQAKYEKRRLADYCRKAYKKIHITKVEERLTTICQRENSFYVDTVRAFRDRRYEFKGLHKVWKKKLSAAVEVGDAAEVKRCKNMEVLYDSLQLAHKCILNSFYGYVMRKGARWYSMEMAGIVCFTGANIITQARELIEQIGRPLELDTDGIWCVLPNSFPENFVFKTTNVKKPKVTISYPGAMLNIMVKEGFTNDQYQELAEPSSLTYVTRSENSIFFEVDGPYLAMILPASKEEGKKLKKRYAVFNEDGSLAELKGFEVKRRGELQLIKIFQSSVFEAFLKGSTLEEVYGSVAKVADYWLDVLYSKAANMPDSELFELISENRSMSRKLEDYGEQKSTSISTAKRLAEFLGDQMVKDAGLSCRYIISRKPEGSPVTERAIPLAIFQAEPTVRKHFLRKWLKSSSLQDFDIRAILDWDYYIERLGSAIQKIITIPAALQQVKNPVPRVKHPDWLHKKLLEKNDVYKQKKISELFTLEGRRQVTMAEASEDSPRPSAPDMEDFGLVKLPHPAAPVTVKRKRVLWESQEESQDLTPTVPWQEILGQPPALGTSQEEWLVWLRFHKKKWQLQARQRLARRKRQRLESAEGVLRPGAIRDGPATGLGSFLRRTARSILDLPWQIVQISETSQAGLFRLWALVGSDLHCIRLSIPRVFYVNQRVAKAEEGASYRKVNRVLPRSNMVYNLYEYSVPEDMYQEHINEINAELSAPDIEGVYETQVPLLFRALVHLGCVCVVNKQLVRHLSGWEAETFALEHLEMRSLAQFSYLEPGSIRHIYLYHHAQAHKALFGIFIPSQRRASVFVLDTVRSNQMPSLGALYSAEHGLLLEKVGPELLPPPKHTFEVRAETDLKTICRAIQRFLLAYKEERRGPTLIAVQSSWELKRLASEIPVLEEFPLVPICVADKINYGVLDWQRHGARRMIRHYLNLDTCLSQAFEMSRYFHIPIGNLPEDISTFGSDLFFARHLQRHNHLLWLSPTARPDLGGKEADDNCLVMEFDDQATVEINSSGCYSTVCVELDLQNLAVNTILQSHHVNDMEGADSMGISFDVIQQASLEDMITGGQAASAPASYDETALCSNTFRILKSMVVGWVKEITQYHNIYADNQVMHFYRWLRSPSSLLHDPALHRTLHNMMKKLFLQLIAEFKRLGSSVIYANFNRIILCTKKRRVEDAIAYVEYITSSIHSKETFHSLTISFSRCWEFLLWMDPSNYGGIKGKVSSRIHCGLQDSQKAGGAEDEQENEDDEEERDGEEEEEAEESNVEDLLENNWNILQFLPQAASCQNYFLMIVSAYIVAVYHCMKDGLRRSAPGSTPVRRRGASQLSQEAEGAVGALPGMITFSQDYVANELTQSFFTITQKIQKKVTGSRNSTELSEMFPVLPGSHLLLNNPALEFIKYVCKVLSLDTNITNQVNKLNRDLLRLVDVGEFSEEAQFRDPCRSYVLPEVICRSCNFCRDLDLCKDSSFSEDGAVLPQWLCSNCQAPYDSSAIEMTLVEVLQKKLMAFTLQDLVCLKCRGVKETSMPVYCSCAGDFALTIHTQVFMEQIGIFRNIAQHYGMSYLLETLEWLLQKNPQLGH
pole1 315-AAIAAFA-321 with N-terminal GFP (Q07864, form named): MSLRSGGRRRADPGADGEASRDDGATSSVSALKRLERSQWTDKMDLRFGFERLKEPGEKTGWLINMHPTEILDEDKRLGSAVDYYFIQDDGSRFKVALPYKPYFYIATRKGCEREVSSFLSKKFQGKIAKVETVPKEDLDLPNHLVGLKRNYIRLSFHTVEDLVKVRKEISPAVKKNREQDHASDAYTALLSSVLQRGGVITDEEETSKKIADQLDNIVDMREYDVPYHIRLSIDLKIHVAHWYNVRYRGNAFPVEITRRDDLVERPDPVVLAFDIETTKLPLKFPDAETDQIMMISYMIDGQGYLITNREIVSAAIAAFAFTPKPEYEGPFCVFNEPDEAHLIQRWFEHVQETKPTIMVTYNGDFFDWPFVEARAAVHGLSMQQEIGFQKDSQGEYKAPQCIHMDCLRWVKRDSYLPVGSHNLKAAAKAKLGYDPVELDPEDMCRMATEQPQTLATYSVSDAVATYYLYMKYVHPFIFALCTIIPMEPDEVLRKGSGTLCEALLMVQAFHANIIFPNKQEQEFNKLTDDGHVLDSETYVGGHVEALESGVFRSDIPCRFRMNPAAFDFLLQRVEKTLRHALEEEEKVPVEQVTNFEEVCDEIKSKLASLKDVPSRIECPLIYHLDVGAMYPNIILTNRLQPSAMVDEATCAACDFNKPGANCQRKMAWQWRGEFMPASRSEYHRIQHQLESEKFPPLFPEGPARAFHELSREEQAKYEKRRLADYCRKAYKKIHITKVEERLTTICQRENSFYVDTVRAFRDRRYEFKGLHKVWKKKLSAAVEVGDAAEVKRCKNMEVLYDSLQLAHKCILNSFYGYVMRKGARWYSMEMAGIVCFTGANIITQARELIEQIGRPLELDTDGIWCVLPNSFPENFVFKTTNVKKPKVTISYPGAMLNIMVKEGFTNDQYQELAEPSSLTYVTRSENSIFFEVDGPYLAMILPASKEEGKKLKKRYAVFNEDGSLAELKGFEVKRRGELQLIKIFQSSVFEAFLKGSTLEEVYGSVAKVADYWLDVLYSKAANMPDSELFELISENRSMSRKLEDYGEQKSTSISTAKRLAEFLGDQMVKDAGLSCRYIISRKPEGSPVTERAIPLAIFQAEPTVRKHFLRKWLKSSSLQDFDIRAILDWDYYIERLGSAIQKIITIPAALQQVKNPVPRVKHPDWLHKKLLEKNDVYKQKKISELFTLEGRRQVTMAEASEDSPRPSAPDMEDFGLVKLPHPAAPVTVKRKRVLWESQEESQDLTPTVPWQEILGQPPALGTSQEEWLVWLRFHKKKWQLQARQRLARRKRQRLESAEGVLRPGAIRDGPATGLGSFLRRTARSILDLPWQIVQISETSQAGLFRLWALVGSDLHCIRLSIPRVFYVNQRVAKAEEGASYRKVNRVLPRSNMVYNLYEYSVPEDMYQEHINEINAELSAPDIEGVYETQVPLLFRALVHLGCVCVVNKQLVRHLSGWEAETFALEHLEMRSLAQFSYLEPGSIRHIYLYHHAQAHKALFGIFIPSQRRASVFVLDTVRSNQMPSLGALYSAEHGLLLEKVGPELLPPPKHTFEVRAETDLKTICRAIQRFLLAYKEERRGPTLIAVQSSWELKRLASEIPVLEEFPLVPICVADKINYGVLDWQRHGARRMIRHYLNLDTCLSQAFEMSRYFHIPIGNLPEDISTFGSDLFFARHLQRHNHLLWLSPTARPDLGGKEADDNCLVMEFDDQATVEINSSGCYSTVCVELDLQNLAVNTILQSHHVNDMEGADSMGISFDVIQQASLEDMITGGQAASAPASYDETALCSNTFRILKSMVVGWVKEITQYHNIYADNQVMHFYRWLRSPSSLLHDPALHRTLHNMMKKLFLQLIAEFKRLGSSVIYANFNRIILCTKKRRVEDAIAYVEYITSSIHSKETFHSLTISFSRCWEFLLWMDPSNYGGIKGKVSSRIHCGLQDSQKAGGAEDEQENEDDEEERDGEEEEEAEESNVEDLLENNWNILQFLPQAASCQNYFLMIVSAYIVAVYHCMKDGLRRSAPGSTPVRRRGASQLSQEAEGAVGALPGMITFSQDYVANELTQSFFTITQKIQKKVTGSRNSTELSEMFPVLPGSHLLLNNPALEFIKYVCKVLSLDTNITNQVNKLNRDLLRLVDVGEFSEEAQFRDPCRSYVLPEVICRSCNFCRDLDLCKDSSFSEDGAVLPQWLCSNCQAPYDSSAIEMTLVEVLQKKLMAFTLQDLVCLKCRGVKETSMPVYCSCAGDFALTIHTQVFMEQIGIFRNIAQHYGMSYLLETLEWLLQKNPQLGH
UniProt Q8WVB6: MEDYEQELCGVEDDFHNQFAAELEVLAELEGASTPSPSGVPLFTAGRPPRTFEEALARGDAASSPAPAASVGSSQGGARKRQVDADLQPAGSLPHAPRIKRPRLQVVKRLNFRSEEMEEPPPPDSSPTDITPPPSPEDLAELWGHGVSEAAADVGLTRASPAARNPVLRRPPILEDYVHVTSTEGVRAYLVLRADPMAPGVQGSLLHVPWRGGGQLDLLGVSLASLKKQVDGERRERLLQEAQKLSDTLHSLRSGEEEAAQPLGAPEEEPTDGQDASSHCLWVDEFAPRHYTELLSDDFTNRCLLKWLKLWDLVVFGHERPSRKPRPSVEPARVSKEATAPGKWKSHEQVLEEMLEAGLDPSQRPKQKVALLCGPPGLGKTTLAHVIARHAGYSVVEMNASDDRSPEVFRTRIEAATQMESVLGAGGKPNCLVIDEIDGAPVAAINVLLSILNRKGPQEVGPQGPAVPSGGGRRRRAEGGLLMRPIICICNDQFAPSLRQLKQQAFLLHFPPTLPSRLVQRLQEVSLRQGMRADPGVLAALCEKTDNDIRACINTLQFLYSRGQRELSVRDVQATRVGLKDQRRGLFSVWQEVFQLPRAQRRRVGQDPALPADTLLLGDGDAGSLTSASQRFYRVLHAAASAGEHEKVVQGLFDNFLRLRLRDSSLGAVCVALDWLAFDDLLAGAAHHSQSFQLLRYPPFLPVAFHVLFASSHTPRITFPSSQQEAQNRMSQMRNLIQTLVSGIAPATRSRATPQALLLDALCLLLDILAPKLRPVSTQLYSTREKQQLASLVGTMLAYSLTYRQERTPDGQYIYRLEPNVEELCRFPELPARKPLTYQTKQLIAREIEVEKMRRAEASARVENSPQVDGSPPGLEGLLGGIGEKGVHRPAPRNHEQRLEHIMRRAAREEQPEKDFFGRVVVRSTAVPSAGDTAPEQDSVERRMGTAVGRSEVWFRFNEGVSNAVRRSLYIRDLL
UniProt P15873: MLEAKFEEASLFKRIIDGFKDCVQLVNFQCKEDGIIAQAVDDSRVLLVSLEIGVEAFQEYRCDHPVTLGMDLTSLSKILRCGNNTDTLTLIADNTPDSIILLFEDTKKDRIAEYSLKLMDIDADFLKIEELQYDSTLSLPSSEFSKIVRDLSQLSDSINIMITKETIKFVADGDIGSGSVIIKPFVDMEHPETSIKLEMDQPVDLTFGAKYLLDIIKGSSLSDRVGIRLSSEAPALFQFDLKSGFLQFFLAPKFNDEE

Legend:
Assay in all cases: co-IP
[1] = biological target: pole1 315-AAIAAFA-321 with C-terminal GFP (human) (UniProt Q07864)
[2] = biological target: pole1 315-AAIAAFA-321 with N-terminal GFP (human) (UniProt Q07864)
[3] = biological target: POLE1 with N-terminal GFP, wild type (human) (UniProt Q07864)
[4] = biological target: POLE1 with C-terminal GFP, wild type (human) (UniProt Q07864)
[5] = biological target: Mcm3 with TAP tag (S. cerevisiae (endogenous in W303-derived strains)) (UniProt P24279)

binding [1]	binding [2]	binding [3]	binding [4]	binding [5]	Substance
no binding	no binding	binds	binds	–	Ctf18 (human, of CTF18-RFC) (from UniProt Q8WVB6 1-975)
–	–	–	–	binds	PCNA (from UniProt P15873 1-258)
